Assay results from patent publication US20190330315A1 (IMAGO PHARMACEUTICALS, published 2019).
No constants are given. Whether binding was seen depends on the method and setting. Some entries that bind do so weakly or less than the wild type. Where no end group is shown, it is not given here.

Key:
[1] = molecular target: T1, Peptide 1: α-synuclein amino acids 100-117 (18 amino acids) … (human); experiment: BLI (refers to Example 2)
T1 sequence (peptide, biotinylated (position not stated)): LGKNEEGAPQEGILEDMP

[2] = molecular target: T1, Peptide 1: α-synuclein amino acids 100-117 (18 amino acids) … (human); experiment: BLI (ForteBio Octet Red96), biotinylated peptide on streptavidin biosensors

B1: IGP101 (antibody, V domains shown)
VH: EVQLVESGGGLVQPKGTLKLSCAASGFSFNTYAMNWVRQAPGKSLEWVARTLSKSNNYATYYADSVKDRFTISRDDSQSMLSLQMNNLKTEDTAMYYCVGAFAYWGQGTLVTVSA
VL: DIVMTQAAPSVPVTPGESVSISCRSSKSLLHSNGNTYLYWFLQRPGQSPQLLIYRMSNLASGVPDRFSGSGSGTAFTLRISRVEAEDVGVYYCMQHLEFPFTFGAGTKLELK
notes: Mouse monoclonal antibody from hybridoma ATCC PTA-9197; It was tested as whole mouse IgG, captured on anti-mouse IgG biosensors; The constant regions and isotype are not explicitly stated; a g2b constant region primer is mentioned only in illustrative cloning methods; also called IGP101 antibody; mouse monoclonal antibody IGP101
[1]
  binding: binds
[2]
  binding: binds
